Results are given in words; binding and its absence hold for the method and conditions named. Binding seen in cells or lysates may run through a third protein. Here binding means that the protein was enriched with, or labelled near, the bait; the list need not be complete. Tags and fused reporters may be left off the sequences shown.
T1: SMG7 containing N-terminal Flag and HA (hemagglutinin) tags (FH-SMG7), expressed in H1299 cells (human (cDNA from HCT116 cells)) (UniProt Q92540)
T1 sequence: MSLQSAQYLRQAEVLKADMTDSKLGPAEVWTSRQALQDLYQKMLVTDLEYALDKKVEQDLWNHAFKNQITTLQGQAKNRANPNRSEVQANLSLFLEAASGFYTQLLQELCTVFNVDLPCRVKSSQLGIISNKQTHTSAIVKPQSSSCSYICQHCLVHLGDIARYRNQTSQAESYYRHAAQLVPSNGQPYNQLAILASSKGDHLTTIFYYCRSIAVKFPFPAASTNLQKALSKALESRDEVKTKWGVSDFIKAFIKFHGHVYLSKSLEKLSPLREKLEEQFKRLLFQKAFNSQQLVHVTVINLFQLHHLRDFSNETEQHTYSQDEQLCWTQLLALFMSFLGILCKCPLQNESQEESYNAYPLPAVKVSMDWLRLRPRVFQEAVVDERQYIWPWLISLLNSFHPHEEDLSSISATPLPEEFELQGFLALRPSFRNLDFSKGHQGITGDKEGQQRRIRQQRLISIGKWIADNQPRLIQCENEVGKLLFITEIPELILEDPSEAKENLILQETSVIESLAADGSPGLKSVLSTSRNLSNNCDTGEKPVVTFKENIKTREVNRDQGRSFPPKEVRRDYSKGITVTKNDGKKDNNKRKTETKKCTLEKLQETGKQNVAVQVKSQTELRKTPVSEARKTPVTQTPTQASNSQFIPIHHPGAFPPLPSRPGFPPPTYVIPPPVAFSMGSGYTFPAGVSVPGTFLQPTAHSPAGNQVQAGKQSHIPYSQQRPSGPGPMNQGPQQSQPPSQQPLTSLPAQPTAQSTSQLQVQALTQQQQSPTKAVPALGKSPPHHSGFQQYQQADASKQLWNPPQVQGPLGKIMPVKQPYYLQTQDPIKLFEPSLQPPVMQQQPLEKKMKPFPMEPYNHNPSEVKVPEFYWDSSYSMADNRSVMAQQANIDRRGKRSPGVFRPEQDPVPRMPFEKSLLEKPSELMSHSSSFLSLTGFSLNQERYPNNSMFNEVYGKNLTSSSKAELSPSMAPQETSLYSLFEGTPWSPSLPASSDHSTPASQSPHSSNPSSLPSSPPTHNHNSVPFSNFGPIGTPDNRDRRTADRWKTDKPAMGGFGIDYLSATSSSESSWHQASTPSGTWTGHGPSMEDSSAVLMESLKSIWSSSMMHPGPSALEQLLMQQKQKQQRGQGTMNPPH

B1: RAD17 (endogenous, H1299 cells) (protein, UniProt O75943-2 1-670)
chain: MNQVTDWVDPSFDDFLECSGVSTITATSLGVNNSSHRRKNGPSTLESSRFPARKRGNLSSLEQIYGLENSKEYLSENEPWVDKYKPETQHELAVHKKKIEEVETWLKAQVLERQPKQGGSILLITGPPGCGKTTTLKILSKEHGIQVQEWINPVLPDFQKDDFKGMFNTESSFHMFPYQSQIAVFKEFLLRATKYNKLQMLGDDLRTDKKIILVEDLPNQFYRDSHTLHEVLRKYVRIGRCPLIFIISDSLSGDNNQRLLFPKEIQEECSISNISFNPVAPTIMMKFLNRIVTIEANKNGGKITVPDKTSLELLCQGCSGDIRSAINSLQFSSSKGENNLRPRKKGMSLKSDAVLSKSKRRKKPDRVFENQEVQAIGGKDVSLFLFRALGKILYCKRASLTELDSPRLPSHLSEYERDTLLVEPEEVVEMSHMPGDLFNLYLHQNYIDFFMEIDDIVRASEFLSFADILSGDWNTRSLLREYSTSIATRGVMHSNKARGYAHCQGGGSSFRPLHKPQWFLINKKYRENCLAAKALFPDFCLPALCLQTQLLPYLALLTIPMRNQAQISFIQDIGRLPLKRHFGRLKMEALTDREHGMIDPDSGDEAQLNGGHSAEESLGEPTQATVPETWSLPLSQNSASELPASQPQPFSAQGDMEENIIIEDYESDGT
B2: SMG5 (protein, UniProt Q9UPR3 1-1016)
chain: MSQGPPTGESSEPEAKVLHTKRLYRAVVEAVHRLDLILCNKTAYQEVFKPENISLRNKLRELCVKLMFLHPVDYGRKAEELLWRKVYYEVIQLIKTNKKHIHSRSTLECAYRTHLVAGIGFYQHLLLYIQSHYQLELQCCIDWTHVTDPLIGCKKPVSASGKEMDWAQMACHRCLVYLGDLSRYQNELAGVDTELLAERFYYQALSVAPQIGMPFNQLGTLAGSKYYNVEAMYCYLRCIQSEVSFEGAYGNLKRLYDKAAKMYHQLKKCETRKLSPGKKRCKDIKRLLVNFMYLQSLLQPKSSSVDSELTSLCQSVLEDFNLCLFYLPSSPNLSLASEDEEEYESGYAFLPDLLIFQMVIICLMCVHSLERAGSKQYSAAIAFTLALFSHLVNHVNIRLQAELEEGENPVPAFQSDGTDEPESKEPVEKEEEPDPEPPPVTPQVGEGRKSRKFSRLSCLRRRRHPPKVGDDSDLSEGFESDSSHDSARASEGSDSGSDKSLEGGGTAFDAETDSEMNSQESRSDLEDMEEEEGTRSPTLEPPRGRSEAPDSLNGPLGPSEASIASNLQAMSTQMFQTKRCFRLAPTFSNLLLQPTTNPHTSASHRPCVNGDVDKPSEPASEEGSESEGSESSGRSCRNERSIQEKLQVLMAEGLLPAVKVFLDWLRTNPDLIIVCAQSSQSLWNRLSVLLNLLPAAGELQESGLALCPEVQDLLEGCELPDLPSSLLLPEDMALRNLPPLRAAHRRFNFDTDRPLLSTLEESVVRICCIRSFGHFIARLQGSILQFNPEVGIFVSIAQSEQESLLQQAQAQFRMAQEEARRNRLMRDMAQLRLQLEVSQLEGSLQQPKAQSAMSPYLVPDTQALCHHLPVIRQLATSGRFIVIIPRTVIDGLDLLKKEHPGARDGIRYLEAEFKKGNRYIRCQKEVGKSFERHKLKRQDADAWTLYKILDSCKQLTLAQGAGEEDPSGMVTIITGLPLDNPSVLSGPMQAALQAAAHASVDIKNVLDFYKQWKEIG
B3: UPF1 (protein, UniProt Q92900 1-1129)
chain: MSVEAYGPSSQTLTFLDTEEAELLGADTQGSEFEFTDFTLPSQTQTPPGGPGGPGGGGAGGPGGAGAGAAAGQLDAQVGPEGILQNGAVDDSVAKTSQLLAELNFEEDEEDTYYTKDLPIHACSYCGIHDPACVVYCNTSKKWFCNGRGNTSGSHIVNHLVRAKCKEVTLHKDGPLGETVLECYNCGCRNVFLLGFIPAKADSVVVLLCRQPCASQSSLKDINWDSSQWQPLIQDRCFLSWLVKIPSEQEQLRARQITAQQINKLEELWKENPSATLEDLEKPGVDEEPQHVLLRYEDAYQYQNIFGPLVKLEADYDKKLKESQTQDNITVRWDLGLNKKRIAYFTLPKTDSGNEDLVIIWLRDMRLMQGDEICLRYKGDLAPLWKGIGHVIKVPDNYGDEIAIELRSSVGAPVEVTHNFQVDFVWKSTSFDRMQSALKTFAVDETSVSGYIYHKLLGHEVEDVIIKCQLPKRFTAQGLPDLNHSQVYAVKTVLQRPLSLIQGPPGTGKTVTSATIVYHLARQGNGPVLVCAPSNIAVDQLTEKIHQTGLKVVRLCAKSREAIDSPVSFLALHNQIRNMDSMPELQKLQQLKDETGELSSADEKRYRALKRTAERELLMNADVICCTCVGAGDPRLAKMQFRSILIDESTQATEPECMVPVVLGAKQLILVGDHCQLGPVVMCKKAAKAGLSQSLFERLVVLGIRPIRLQVQYRMHPALSAFPSNIFYEGSLQNGVTAADRVKKGFDFQWPQPDKPMFFYVTQGQEEIASSGTSYLNRTEAANVEKITTKLLKAGAKPDQIGIITPYEGQRSYLVQYMQFSGSLHTKLYQEVEIASVDAFQGREKDFIILSCVRANEHQGIGFLNDPRRLNVALTRARYGVIIVGNPKALSKQPLWNHLLNYYKEQKVLVEGPLNNLRESLMQFSKPRKLVNTINPGARFMTTAMYDAREAIIPGSVYDRSSQGRPSSMYFQTHDQIGMISAGPSHVAAMNIPIPFNLVMPPMPPPGYFGQANGPAAGRGTPKGKTGRGGRQKNRFGLPGPSQTNLPNSQASQDVASQPFSQGALTQGYISMSQPSQMSQPGLSQPELSQDSYLGDEFKSQIDVALSQDSTYQGERAYQHGGVTGLSQY

These binders were tested against T1, SMG7 containing N-terminal Flag and HA (hemagglutinin) tags (FH-SMG7), expressed in H1299 cells (human (cDNA from HCT116 cells)) (assay: affinity purification with mass spectrometry; H1299-FH-SMG7 stable cells; extracts in BC100 buffer (20 mM Tris-HCl pH 7.9, 100 mM NaCl, 10% glycerol, 0.2 mM EDTA, 0.5% Triton X-100); tandem purification on α-Flag M2 agarose (Flag peptide elution) then α-HA agarose (HA peptide elution); mass spectrometry).

| Binder | binding |
| --- | --- |
| B1 | binds |
| B2 | binds |
| B3 | binds |

Reference: article PMC8021557
